# The list shows a part of the results.
# Sequences of proteins named here, by UniProt entry; tags and fusion partners are left off. A change or cut given only in a name is not applied to a line headed by its entry.
# UniProt Q16342: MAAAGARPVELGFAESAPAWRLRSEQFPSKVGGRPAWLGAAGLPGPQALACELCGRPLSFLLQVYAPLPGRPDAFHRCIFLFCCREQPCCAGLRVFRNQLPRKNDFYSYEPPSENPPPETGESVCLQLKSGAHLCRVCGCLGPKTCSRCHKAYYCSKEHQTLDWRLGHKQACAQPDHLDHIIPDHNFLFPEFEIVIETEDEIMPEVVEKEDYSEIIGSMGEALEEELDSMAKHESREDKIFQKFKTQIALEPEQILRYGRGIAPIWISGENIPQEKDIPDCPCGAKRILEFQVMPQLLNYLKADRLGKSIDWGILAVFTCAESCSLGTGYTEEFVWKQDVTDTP
# UniProt P51160: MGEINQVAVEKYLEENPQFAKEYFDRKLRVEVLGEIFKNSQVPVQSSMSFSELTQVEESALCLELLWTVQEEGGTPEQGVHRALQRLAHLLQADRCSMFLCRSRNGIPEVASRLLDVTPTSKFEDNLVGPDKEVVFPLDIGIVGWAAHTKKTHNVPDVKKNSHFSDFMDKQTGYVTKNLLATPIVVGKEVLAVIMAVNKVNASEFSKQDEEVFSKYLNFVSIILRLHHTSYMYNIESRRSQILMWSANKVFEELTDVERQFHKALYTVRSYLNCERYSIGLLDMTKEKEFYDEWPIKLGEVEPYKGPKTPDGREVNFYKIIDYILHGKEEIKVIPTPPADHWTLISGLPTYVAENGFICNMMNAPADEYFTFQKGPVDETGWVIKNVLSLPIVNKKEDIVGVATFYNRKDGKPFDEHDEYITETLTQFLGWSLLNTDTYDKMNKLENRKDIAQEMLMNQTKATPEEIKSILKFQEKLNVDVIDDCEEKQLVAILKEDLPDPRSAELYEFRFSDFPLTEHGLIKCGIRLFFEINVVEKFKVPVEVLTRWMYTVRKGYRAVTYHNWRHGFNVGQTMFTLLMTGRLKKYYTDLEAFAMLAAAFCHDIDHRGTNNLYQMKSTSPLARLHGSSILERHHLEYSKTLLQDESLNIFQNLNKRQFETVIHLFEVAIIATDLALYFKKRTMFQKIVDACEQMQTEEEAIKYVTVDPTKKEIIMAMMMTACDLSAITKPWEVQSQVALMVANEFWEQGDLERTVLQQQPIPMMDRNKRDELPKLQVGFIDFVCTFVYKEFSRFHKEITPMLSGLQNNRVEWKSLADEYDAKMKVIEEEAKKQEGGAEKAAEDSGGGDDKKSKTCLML
# UniProt Q86YH6: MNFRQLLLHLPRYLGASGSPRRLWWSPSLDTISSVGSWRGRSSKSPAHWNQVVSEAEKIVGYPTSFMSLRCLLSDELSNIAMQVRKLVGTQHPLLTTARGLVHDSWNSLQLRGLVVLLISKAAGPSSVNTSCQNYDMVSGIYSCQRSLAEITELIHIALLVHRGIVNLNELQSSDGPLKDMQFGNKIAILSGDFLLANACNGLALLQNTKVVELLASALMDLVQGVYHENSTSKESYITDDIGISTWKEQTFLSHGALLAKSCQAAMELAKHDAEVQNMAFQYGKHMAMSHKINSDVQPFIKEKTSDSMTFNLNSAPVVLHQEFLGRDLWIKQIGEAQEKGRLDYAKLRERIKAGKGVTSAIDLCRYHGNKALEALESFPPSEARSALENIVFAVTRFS
# UniProt Q86SE9: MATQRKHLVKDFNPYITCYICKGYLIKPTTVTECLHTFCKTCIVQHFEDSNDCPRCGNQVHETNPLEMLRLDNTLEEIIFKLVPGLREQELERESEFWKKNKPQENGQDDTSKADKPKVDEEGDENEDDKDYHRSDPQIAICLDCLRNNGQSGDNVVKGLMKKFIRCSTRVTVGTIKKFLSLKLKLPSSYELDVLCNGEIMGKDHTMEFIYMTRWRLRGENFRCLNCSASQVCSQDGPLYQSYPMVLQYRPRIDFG
# UniProt O94913, whole entry, looked up: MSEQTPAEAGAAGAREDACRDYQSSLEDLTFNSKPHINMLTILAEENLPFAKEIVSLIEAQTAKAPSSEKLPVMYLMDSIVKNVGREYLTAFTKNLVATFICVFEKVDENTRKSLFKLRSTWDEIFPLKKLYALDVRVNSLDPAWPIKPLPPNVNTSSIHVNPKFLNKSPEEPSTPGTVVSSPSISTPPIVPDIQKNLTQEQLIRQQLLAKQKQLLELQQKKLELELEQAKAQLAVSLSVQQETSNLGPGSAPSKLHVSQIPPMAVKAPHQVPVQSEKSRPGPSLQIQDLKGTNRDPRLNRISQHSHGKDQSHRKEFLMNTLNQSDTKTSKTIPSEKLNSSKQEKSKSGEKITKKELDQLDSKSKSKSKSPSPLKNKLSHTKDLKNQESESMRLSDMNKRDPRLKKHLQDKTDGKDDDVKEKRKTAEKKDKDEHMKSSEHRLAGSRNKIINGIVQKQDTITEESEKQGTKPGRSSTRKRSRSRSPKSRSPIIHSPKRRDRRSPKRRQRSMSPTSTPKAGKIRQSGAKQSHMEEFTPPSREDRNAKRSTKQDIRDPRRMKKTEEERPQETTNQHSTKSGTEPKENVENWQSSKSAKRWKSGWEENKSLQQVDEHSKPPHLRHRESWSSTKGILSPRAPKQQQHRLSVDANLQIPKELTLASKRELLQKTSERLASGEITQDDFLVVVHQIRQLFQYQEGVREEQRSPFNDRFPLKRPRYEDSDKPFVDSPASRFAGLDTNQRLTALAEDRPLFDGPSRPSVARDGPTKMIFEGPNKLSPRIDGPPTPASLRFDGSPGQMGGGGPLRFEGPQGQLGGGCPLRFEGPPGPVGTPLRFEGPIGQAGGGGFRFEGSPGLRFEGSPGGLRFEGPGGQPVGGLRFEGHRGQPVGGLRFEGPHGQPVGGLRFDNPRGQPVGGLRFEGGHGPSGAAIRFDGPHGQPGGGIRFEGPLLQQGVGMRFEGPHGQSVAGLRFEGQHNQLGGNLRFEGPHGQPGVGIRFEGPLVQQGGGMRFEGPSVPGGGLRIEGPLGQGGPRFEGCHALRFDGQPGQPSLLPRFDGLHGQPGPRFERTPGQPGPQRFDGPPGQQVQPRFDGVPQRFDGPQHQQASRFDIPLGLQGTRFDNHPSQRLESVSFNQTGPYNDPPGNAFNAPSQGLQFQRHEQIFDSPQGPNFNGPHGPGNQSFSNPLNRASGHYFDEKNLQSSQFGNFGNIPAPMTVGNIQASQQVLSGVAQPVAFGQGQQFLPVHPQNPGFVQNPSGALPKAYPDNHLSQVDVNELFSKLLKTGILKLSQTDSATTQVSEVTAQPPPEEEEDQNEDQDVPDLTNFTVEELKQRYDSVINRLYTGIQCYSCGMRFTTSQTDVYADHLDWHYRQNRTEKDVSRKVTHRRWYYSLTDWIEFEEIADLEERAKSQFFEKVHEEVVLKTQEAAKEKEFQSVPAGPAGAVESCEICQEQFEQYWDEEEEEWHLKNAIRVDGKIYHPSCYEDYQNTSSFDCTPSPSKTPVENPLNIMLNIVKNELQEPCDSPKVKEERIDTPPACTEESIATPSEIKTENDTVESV
# UniProt P30039: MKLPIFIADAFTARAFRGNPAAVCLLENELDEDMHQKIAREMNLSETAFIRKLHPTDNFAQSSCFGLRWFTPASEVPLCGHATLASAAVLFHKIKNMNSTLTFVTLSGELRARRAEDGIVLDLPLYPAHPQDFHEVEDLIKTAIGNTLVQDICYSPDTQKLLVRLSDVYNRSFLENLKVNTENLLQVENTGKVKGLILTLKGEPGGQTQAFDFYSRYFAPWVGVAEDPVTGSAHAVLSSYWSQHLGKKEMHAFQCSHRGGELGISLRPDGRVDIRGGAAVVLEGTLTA
# UniProt O60683: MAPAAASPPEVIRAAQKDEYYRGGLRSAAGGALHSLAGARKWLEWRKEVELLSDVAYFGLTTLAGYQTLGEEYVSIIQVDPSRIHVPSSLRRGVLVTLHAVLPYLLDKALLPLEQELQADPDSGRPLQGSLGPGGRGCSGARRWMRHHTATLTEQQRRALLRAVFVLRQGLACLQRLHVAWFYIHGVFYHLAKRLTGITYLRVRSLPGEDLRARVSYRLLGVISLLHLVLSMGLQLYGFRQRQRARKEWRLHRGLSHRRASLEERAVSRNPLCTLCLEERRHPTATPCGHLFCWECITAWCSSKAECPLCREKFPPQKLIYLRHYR
# UniProt Q9H4Z3: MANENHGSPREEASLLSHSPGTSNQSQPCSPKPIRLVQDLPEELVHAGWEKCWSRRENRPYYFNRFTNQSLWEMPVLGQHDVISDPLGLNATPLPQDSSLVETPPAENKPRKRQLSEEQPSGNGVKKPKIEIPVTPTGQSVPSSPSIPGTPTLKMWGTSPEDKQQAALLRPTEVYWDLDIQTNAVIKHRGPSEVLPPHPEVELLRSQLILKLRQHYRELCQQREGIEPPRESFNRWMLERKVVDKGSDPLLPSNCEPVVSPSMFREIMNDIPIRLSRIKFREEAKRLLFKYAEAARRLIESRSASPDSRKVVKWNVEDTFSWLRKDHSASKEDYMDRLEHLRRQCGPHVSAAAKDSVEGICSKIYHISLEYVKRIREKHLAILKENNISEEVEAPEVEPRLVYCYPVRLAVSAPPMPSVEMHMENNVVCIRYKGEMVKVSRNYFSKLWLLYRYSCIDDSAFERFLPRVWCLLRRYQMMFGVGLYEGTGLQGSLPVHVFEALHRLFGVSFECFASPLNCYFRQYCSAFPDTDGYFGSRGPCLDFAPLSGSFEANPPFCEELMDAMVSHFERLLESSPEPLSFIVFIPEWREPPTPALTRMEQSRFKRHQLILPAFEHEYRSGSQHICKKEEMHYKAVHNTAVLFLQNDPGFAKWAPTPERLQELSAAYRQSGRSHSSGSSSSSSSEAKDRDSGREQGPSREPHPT
# UniProt P27815: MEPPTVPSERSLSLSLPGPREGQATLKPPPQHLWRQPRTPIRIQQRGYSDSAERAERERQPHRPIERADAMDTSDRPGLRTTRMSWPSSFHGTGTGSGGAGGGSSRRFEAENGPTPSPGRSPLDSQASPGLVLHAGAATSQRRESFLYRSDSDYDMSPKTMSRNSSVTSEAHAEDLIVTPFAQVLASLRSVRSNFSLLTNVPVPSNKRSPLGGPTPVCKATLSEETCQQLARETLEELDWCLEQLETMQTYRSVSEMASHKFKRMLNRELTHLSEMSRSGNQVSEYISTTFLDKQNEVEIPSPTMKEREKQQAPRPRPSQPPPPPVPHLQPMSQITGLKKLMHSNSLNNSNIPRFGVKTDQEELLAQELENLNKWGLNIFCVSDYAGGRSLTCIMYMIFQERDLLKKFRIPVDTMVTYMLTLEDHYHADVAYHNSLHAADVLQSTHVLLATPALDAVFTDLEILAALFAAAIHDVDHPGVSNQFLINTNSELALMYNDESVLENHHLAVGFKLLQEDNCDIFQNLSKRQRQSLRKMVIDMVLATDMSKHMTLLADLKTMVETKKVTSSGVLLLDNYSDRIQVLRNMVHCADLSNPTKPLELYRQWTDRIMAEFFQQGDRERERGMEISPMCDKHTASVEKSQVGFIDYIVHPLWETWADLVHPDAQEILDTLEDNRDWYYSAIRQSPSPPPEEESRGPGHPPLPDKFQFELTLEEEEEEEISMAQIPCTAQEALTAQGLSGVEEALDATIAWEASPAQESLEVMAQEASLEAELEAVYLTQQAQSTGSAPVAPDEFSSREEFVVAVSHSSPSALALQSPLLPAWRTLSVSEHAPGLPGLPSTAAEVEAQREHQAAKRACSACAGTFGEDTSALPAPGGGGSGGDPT
# UniProt Q9H999: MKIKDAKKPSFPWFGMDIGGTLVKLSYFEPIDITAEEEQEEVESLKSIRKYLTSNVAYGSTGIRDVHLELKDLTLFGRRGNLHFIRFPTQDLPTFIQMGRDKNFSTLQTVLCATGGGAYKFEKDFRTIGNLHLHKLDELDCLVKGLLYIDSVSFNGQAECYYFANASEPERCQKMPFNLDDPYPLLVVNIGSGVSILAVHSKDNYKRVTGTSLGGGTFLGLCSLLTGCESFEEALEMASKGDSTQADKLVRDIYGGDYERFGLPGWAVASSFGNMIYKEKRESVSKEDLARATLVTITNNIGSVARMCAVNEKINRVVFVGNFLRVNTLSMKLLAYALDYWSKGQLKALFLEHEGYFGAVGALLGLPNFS
# UniProt Q5EBL8: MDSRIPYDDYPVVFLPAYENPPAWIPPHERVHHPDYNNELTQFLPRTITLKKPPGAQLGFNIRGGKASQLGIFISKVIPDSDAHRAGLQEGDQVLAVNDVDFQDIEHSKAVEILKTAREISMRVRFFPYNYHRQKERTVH
# UniProt Q86U42: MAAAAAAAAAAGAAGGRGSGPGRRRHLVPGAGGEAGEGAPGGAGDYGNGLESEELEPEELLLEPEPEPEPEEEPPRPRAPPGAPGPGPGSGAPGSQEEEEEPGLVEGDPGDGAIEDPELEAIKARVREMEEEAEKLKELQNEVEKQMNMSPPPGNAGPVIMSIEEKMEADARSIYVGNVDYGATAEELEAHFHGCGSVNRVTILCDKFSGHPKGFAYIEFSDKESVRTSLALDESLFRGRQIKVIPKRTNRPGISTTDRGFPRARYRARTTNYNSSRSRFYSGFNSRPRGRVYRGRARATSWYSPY
# What was measured:
# Experiment in all cases: log2 fold change, soluble protein after heating vs DMSO (PISA); higher = thermal stabilisation; K562 cells, 10 uM, 30 min; active = over 0.2 and 3.5 SD of the protein, either way, in both replicates (recomputed)
# [1] = compound: NC(=O)Nc1cc(-c2cccc(F)c2)sc1C(=O)N[C@H]1CCCNC1
# Outline: (§1)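 For each measurement, 10 μM compound was applied for 30 min to K562 cells at 2×10^6 cells/mL. Aliquots were heated for 3 min across 48°C-58°C, pooled, and extracted in PBS with 0.5% NP-40 at 4°C; the supernatant after 21,000xg for 90 min was soluble protein. This was quantified by TMTpro 16plex LC-MS/MS with channel sums equalised, and thermal stability was reported relative to control samples from duplicates, on a log2 fold-change scale.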
# [2] = compound: NC1(c2ccc(-c3nc4ccn5c(=O)[nH]nc5c4cc3-c3ccccc3)cc2)CCC1
# Outline: as §1
# entinostat = compound: Nc1ccccc1NC(=O)c1ccc(CNC(=O)OCc2cccnc2)cc1 [entinostat]
# Outline: as §1
# citarinostat = compound: O=C(CCCCCCNC(=O)c1cnc(N(c2ccccc2)c2ccccc2Cl)nc1)NO [citarinostat]
# Outline: as §1
# silmitasertib = compound: O=C(O)c1ccc2c(c1)nc(Nc1cccc(Cl)c1)c1ccncc12 [silmitasertib]
# Outline: as §1
# [3] = compound: O=C1NC(=O)C(c2cnc3ccccn23)=C1c1cn2c3c(cc(F)cc13)CN(C(=O)N1CCCCC1)CC2
# Outline: as §1
# [4] = compound: c1cc(OCCN2CCCCC2)cc(-c2n[nH]c3ccc(-c4nnc[nH]4)cc23)c1
# Outline: as §1
# entospletinib = compound: c1cn2cc(-c3ccc4cn[nH]c4c3)nc(Nc3ccc(N4CCOCC4)cc3)c2n1 [entospletinib]
# Outline: as §1
# [5] = compound: NC(=O)c1cnc(N[C@@H]2CCCC[C@@H]2N)nc1Nc1cccc(-n2nccn2)c1
# Outline: as §1
# [6] = compound: NCC(=O)Nc1ccc(-n2nc(C(F)(F)F)cc2-c2ccc3c(ccc4ccccc43)c2)cc1
# Outline: as §1
# vorinostat = compound: O=C(CCCCCCC(=O)Nc1ccccc1)NO [vorinostat]
# Outline: as §1
target,measurement,setting,value
PDCD2 (UniProt Q16342),log2 fold change,[1],inactive: -0.081
same,log2 fold change,[2],inactive: 0.145
same,log2 fold change,entinostat,inactive: 0.02
same,log2 fold change,citarinostat,inactive: 0.081
same,log2 fold change,silmitasertib,inactive: 0.317
same,log2 fold change,[3],inactive: 0.115
same,log2 fold change,[4],inactive: -0.066
same,log2 fold change,entospletinib,inactive: 0.069
PAFAH2 (UniProt Q99487),log2 fold change,[1],inactive: 0.079
same,log2 fold change,[5],inactive: -0.194
same,log2 fold change,[6],inactive: 0.04
same,log2 fold change,entinostat,inactive: 0.075
PARP4 (UniProt Q9UKK3),log2 fold change,[1],inactive: -0.229
same,log2 fold change,entinostat,inactive: -0.1
PACS2 isoform 2 (UniProt Q86VP3),log2 fold change,[1],inactive: -0.319
same,log2 fold change,entinostat,inactive: 0.056
PDP1 isoform 2 (UniProt Q9P0J1),log2 fold change,[1],inactive: -0.151
same,log2 fold change,entinostat,inactive: -0.141
PCID2 (UniProt Q5JVF3),log2 fold change,[1],inactive: -0.019
same,log2 fold change,[2],inactive: -0.103
same,log2 fold change,[6],inactive: 0.06
same,log2 fold change,entinostat,inactive: 0.12
same,log2 fold change,vorinostat,inactive: 0.199
same,log2 fold change,citarinostat,inactive: -0.004
same,log2 fold change,silmitasertib,inactive: 0.038
same,log2 fold change,[3],inactive: -0.15
same,log2 fold change,[4],inactive: 0.062
PDE6C (UniProt P51160),log2 fold change,[1],inactive: 0.005
same,log2 fold change,[5],inactive: -0.229
same,log2 fold change,[2],inactive: -0.083
same,log2 fold change,[6],inactive: 0.179
same,log2 fold change,entinostat,inactive: 0.034
same,log2 fold change,citarinostat,inactive: 0.061
same,log2 fold change,silmitasertib,inactive: -0.182
same,log2 fold change,[4],inactive: -0.073
same,log2 fold change,entospletinib,inactive: -0.112
PCMTD2 (UniProt Q9NV79),log2 fold change,[2],inactive: 0.015
same,log2 fold change,silmitasertib,inactive: -0.055
PDSS2 (UniProt Q86YH6),log2 fold change,[1],inactive: -0.108
same,log2 fold change,[5],inactive: -0.015
same,log2 fold change,[6],inactive: 0.011
same,log2 fold change,entinostat,inactive: -0.009
same,log2 fold change,vorinostat,inactive: 0.041
same,log2 fold change,citarinostat,inactive: 0.018
same,log2 fold change,[3],inactive: 0.026
same,log2 fold change,[4],inactive: -0.029
PCGF5 (UniProt Q86SE9),log2 fold change,[1],inactive: -0.145
same,log2 fold change,entinostat,inactive: -0.003
same,log2 fold change,citarinostat,inactive: 0.111
same,log2 fold change,[3],inactive: -0.002
same,log2 fold change,[4],inactive: -0.263
same,log2 fold change,entospletinib,inactive: 0.024
PAXBP1 (UniProt Q9Y5B6),log2 fold change,vorinostat,inactive: 0.065
same,log2 fold change,citarinostat,inactive: -0.106
same,log2 fold change,[4],inactive: -0.162
same,log2 fold change,entospletinib,inactive: -0.064
PDXP (UniProt B1AHD3),log2 fold change,[6],inactive: 0.006
same,log2 fold change,[3],inactive: -0.182
"PDIA4, A0A499FI48",log2 fold change,[5],inactive: -0.034
same,log2 fold change,[2],inactive: 0.047
same,log2 fold change,[6],inactive: -0.214
same,log2 fold change,vorinostat,inactive: -0.031
same,log2 fold change,citarinostat,inactive: -0.161
same,log2 fold change,silmitasertib,inactive: 0.012
same,log2 fold change,[4],inactive: -0.092
same,log2 fold change,entospletinib,inactive: 0.078
PCF11 (UniProt O94913),log2 fold change,[5],inactive: -0.047
same,log2 fold change,[2],inactive: -0.333
same,log2 fold change,[6],inactive: -0.179
same,log2 fold change,vorinostat,inactive: -0.04
same,log2 fold change,citarinostat,inactive: 0.001
same,log2 fold change,silmitasertib,inactive: -0.113
same,log2 fold change,[4],inactive: 0.112
same,log2 fold change,entospletinib,active: -0.745
PAICS (UniProt D6RF62),log2 fold change,[5],inactive: -0.446
same,log2 fold change,vorinostat,inactive: -0.494
same,log2 fold change,citarinostat,inactive: -0.167
same,log2 fold change,[4],inactive: -0.099
same,log2 fold change,entospletinib,inactive: 0.252
PBLD (UniProt P30039),log2 fold change,[1],inactive: 0.029
same,log2 fold change,[5],inactive: -0.059
same,log2 fold change,[2],inactive: -0.058
same,log2 fold change,[6],inactive: -0.07
same,log2 fold change,entinostat,inactive: -0.033
same,log2 fold change,citarinostat,inactive: 0
same,log2 fold change,silmitasertib,inactive: -0.013
same,log2 fold change,[3],inactive: -0.067
same,log2 fold change,[4],inactive: 0.224
same,log2 fold change,entospletinib,inactive: 0.004
PARD3 (UniProt Q8TEW0),log2 fold change,vorinostat,inactive: 0.142
same,log2 fold change,citarinostat,inactive: 0.068
same,log2 fold change,[4],inactive: -0.066
same,log2 fold change,entospletinib,inactive: -0.173
PEX10 isoform 2 (UniProt O60683),log2 fold change,[1],inactive: -0.111
same,log2 fold change,[5],inactive: -0.032
same,log2 fold change,[2],inactive: -0.081
same,log2 fold change,entinostat,inactive: -0.022
same,log2 fold change,vorinostat,inactive: -0.112
same,log2 fold change,silmitasertib,inactive: 0.078
PCIF1 (UniProt Q9H4Z3),log2 fold change,[1],inactive: 0.119
same,log2 fold change,[5],inactive: 0.084
same,log2 fold change,[2],inactive: -0.021
same,log2 fold change,[6],inactive: -0.246
same,log2 fold change,entinostat,inactive: 0.003
same,log2 fold change,vorinostat,inactive: 0.098
same,log2 fold change,silmitasertib,inactive: -0.085
same,log2 fold change,[3],inactive: -0.273
PAFAH1B1 (UniProt I3L3N5),log2 fold change,[5],inactive: -0.237
same,log2 fold change,[2],inactive: -0.056
same,log2 fold change,[6],inactive: -0.312
same,log2 fold change,silmitasertib,inactive: 0.027
PCM1 isoform 2 (UniProt Q15154),log2 fold change,[1],inactive: 0.068
same,log2 fold change,[2],inactive: -0.119
same,log2 fold change,entinostat,inactive: 0.067
same,log2 fold change,vorinostat,inactive: 0.053
same,log2 fold change,silmitasertib,inactive: -0.071
PDE3B (UniProt Q13370),log2 fold change,[2],inactive: 0.183
same,log2 fold change,silmitasertib,inactive: 0.248
same,log2 fold change,[3],inactive: 0.305
PDE4A (UniProt P27815),log2 fold change,[5],active: -0.67
same,log2 fold change,[6],inactive: 0.047
same,log2 fold change,[3],inactive: -0.017
PANK3 (UniProt Q9H999),log2 fold change,[1],inactive: -0.199
same,log2 fold change,[5],inactive: -0.05
same,log2 fold change,entinostat,inactive: -0.061
same,log2 fold change,vorinostat,inactive: -0.018
same,log2 fold change,citarinostat,inactive: 0.132
same,log2 fold change,[3],inactive: -0.078
same,log2 fold change,[4],inactive: -0.198
same,log2 fold change,entospletinib,inactive: -0.071
PDZD11 isoform 2 (UniProt Q5EBL8),log2 fold change,[1],inactive: -0.032
same,log2 fold change,[2],inactive: 0.003
same,log2 fold change,[6],inactive: 0.015
same,log2 fold change,entinostat,inactive: 0.053
same,log2 fold change,vorinostat,inactive: 0.012
same,log2 fold change,citarinostat,inactive: 0.046
same,log2 fold change,silmitasertib,inactive: 0.108
same,log2 fold change,[3],inactive: -0.055
same,log2 fold change,[4],inactive: -0.021
same,log2 fold change,entospletinib,inactive: -0.024
PCNX1 (UniProt Q96RV3),log2 fold change,[2],inactive: 0.042
same,log2 fold change,[6],inactive: -0.043
same,log2 fold change,citarinostat,inactive: -0.237
same,log2 fold change,silmitasertib,inactive: -0.11
same,log2 fold change,[3],inactive: -0.14
same,log2 fold change,[4],inactive: -0.269
PDE4DIP (UniProt E9PS60),log2 fold change,[6],inactive: -0.172
same,log2 fold change,citarinostat,inactive: 0.06
same,log2 fold change,[4],inactive: -0.051
PCDH1 isoform 2 (UniProt Q08174),log2 fold change,[1],inactive: -0.129
same,log2 fold change,entinostat,inactive: -0.146
PDIK1L (UniProt Q8N165),log2 fold change,[1],active: 0.566
same,log2 fold change,[5],inactive: -0.025
same,log2 fold change,[2],inactive: -0.075
same,log2 fold change,[6],inactive: -0.225
same,log2 fold change,entinostat,inactive: -0.094
same,log2 fold change,citarinostat,inactive: 0.016
same,log2 fold change,silmitasertib,inactive: 0.035
same,log2 fold change,[3],inactive: 0.019
same,log2 fold change,[4],inactive: -0.162
PALM (UniProt O75781),log2 fold change,[2],inactive: 0.093
same,log2 fold change,[6],inactive: -0.105
same,log2 fold change,silmitasertib,inactive: 0.049
PACC1 (UniProt Q9H813),log2 fold change,[1],inactive: -0.068
same,log2 fold change,[5],inactive: 0.038
same,log2 fold change,[2],inactive: -0.058
same,log2 fold change,[6],inactive: -0.138
same,log2 fold change,entinostat,inactive: -0.094
same,log2 fold change,silmitasertib,inactive: 0.146
same,log2 fold change,[3],inactive: 0.043
PAF1 (UniProt Q8N7H5),log2 fold change,[2],inactive: 0.232
same,log2 fold change,vorinostat,inactive: -0.015
same,log2 fold change,silmitasertib,inactive: 0.038
same,log2 fold change,[3],inactive: -0.05
PBX2 (UniProt P40425),log2 fold change,[1],inactive: 0.089
same,log2 fold change,[5],inactive: -0.016
same,log2 fold change,[2],inactive: -0.203
same,log2 fold change,[6],inactive: -0.065
same,log2 fold change,entinostat,inactive: 0.058
same,log2 fold change,vorinostat,inactive: 0.196
same,log2 fold change,silmitasertib,inactive: 0.003
same,log2 fold change,[3],inactive: -0.168
PAN3 (UniProt Q58A45),log2 fold change,vorinostat,inactive: -0.122
PACRGL (UniProt Q8N7B6),log2 fold change,[1],inactive: 0.055
same,log2 fold change,entinostat,inactive: -0.116
PCBP2 (UniProt F8VZX2),log2 fold change,[2],inactive: 0.158
same,log2 fold change,silmitasertib,inactive: 0.193
PABPN1 (UniProt Q86U42),log2 fold change,[2],inactive: 0.25
same,log2 fold change,vorinostat,inactive: -0.61
same,log2 fold change,silmitasertib,inactive: 0.156
PCMTD1 (UniProt Q96MG8),log2 fold change,[3],inactive: 0.125
PACSIN3 (UniProt Q9UKS6),log2 fold change,[3],inactive: 0.142
PAN2 (UniProt Q504Q3),log2 fold change,[6],inactive: -0.198
same,log2 fold change,citarinostat,inactive: -0.127
same,log2 fold change,[4],inactive: 0.002

# Reprinted at random: 4 entries already listed, in no set order.
target,measurement,setting,value
PCIF1 (UniProt Q9H4Z3),log2 fold change,[6],inactive: -0.246
PDSS2 (UniProt Q86YH6),log2 fold change,entinostat,inactive: -0.009
PEX10 isoform 2 (UniProt O60683),log2 fold change,[1],inactive: -0.111
PCNX1 (UniProt Q96RV3),log2 fold change,[6],inactive: -0.043

# 5 entries from above, tab-delimited:
target	measurement	setting	value
PDSS2 (UniProt Q86YH6)	log2 fold change	vorinostat	inactive: 0.041
same	log2 fold change	citarinostat	inactive: 0.018
same	log2 fold change	[3]	inactive: 0.026
same	log2 fold change	[4]	inactive: -0.029
PCGF5 (UniProt Q86SE9)	log2 fold change	[1]	inactive: -0.145

# Reference: the supplement of paper PMC10849652
